Counter-ions that a name gives are not always drawn. For at least one compound, name, drawing or mass did not settle the structure.
Test system: non-transgenic microspores
Assay: G418 selection kill curve: embryo growth and survival in liquid medium
Type: cell-based, Brassica
Excerpt: The objective was to determine the concentration of G418 that kills non-transgenic microspores. Prior to this experiment, selection was done on solid medium, not in liquid medium. Using liquid selection for Brassica transgenic cells is novel. Selection in liquid medium is advantageous for at least the following reasons: (a) it allows selection at an early stage, thereby eliminating the need for subsequent transfers of explants, (b) it allows for a cleaner selection because the explants are generally smaller when they are in liquid medium and the liquid allows all the surfaces of the explant to be exposed to the selection agent, (c) it may reduce the frequency of chimeras, and (d) a lower amount of the selection agent is needed therefore reducing the toxicity to the researcher and the environment. The effect of various concentrations of kanamycin on embryo growth in liquid medium was tested. […] Accordingly, it was difficult to discriminate transgenic tissue or embryos from non-transgenic.

In the case of `CN[C@@H]1[C@@H](O)[C@@H](O[C@@H]2[C@@H](O)[C@H](O[C@H]3O[C@H]([C@@H](C)O)[C@@H](O)[C@H](O)[C@H]3N)[C@@H](N)C[C@H]2N)OC[C@]1(C)O` [Variant G418, G418 disulfate salt], the “appearance of green embryos” value (G418 1.25 mg/l) is reported as “(paler)” and the “appearance of green embryos” value (G418 2.5 mg/l) is reported as “(light green, smaller size)”.
